Test results from the supplement of paper PMC4604168 (melanoma cell lines).
This is one part of the list. Single values are uncertain, as repeats are few or missing.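 Cells were imaged in 1,536-well plates, and nuclei stained with an antibody against cleaved PARP were counted against all DNA-stained nuclei to give the apoptosis fraction. Screening doses were chosen to leave most cells alive, and resting and induced cleaved-PARP levels differ strongly between cell lines.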

Experiments:
Test in all cases: cleaved PARP positive nuclei fraction relative to DMSO control; melanoma cells; higher = more apoptosis
Conditions in all cases: library dose: low library concentration; 72 h
[1] = system: 501Mel
[2] = system: A101D
[3] = system: A2058
[4] = system: A375
[5] = system: C32
[6] = system: CBRC008 (line from a melanoma biopsy)
[7] = system: CBRC014 (line from a melanoma biopsy)
[8] = system: CBRC016 (line from a melanoma biopsy)
[9] = system: CBRC017 (line from a melanoma biopsy)
[10] = system: CBRC034 (line from a melanoma biopsy)
[11] = system: COLO792
[12] = system: COLO800
[13] = system: COLO829
[14] = system: G361
[15] = system: IPC-298
[16] = system: IST-MEL1
[17] = system: LB2518-MEL
[18] = system: LOXIMVI
[19] = system: MEL-HO

Row | SMILES | cleaved PARP positive nuclei fraction [1] [%] | cleaved PARP positive nuclei fraction [2] [%] | cleaved PARP positive nuclei fraction [3] [%] | cleaved PARP positive nuclei fraction [4] [%] | cleaved PARP positive nuclei fraction [5] [%] | cleaved PARP positive nuclei fraction [6] [%] | cleaved PARP positive nuclei fraction [7] [%] | cleaved PARP positive nuclei fraction [8] [%] | cleaved PARP positive nuclei fraction [9] [%] | cleaved PARP positive nuclei fraction [10] [%] | cleaved PARP positive nuclei fraction [11] [%] | cleaved PARP positive nuclei fraction [12] [%] | cleaved PARP positive nuclei fraction [13] [%] | cleaved PARP positive nuclei fraction [14] [%] | cleaved PARP positive nuclei fraction [15] [%] | cleaved PARP positive nuclei fraction [16] [%] | cleaved PARP positive nuclei fraction [17] [%] | cleaved PARP positive nuclei fraction [18] [%] | cleaved PARP positive nuclei fraction [19] [%]
1 | CC[C@]1(O)C[C@H]2CN(CCc3c([nH]c4ccccc34)[C@@](C(=O)OC)(c3cc4c(cc3OC)N(C=O)[C@H]3[C@@](O)(C(=O)OC)[C@H](OC(C)=O)[C@]5(CC)C=CCN6CC[C@]43[C@@H]65)C2)C1 [vincristine] + O=C(O)c1ccc2c(c1)nc(Nc1cccc(Cl)c1)c1ccncc12 [CX4945] (first compound 0.0001 µM, partner dose 0.4 µM) | 51.4 | 287 | 189 | 200 | 89.4 | 155 | 143 | 228 | 138 | 34.9 | 73.3 | 120 | 134 | 102 | 148 | 124 | 252 | 101 | 65.5
2 | Cc1cc(Nc2cc(N3CCN(C)CC3)nc(Sc3ccc(NC(=O)C4CC4)cc3)n2)n[nH]1 [Tozasertib] + Nc1nc(F)nc2c1ncn2[C@@H]1O[C@H](CO)[C@@H](O)[C@@H]1O [fludarabine] (first compound 0.006 µM, partner dose 0.2 µM) | 2820 | 44.1 | 197 | 3860 | 88.1 | 20.8 | 103 | 86.3 | 101 | 27.2 | 18.6 | 123 | 93.9 | 89.4 | 46.4 | 52 | 132 | 25 | 99.5
3 | Cc1cn(-c2cc(NC(=O)c3ccc(C)c(Nc4nccc(-c5cccnc5)n4)c3)cc(C(F)(F)F)c2)cn1 [nilotinib] + CO[C@H]1C[C@@H]2CC[C@@H](C)[C@@](O)(O2)C(=O)C(=O)N2CCCC[C@H]2C(=O)O[C@H]([C@H](C)C[C@@H]2CC[C@@H](OCCO)[C@H](OC)C2)CC(=O)[C@H](C)/C=C(\C)[C@@H](O)[C@@H](OC)C(=O)[C@H](C)C[C@H](C)/C=C/C=C/C=C/1C [everolimus] (first compound 0.2 µM, partner dose 0.02 µM) | 427 | 81 | 64.1 | 903 | 85.7 | 181 | 129 | 120 | 120 | 37.9 | 120 | 54.7 | 73.3 | 105 | 170 | 157 | 89.2 | 399 | 116
4 | O=C(Nc1cc(C(F)(F)F)cc(C(F)(F)F)c1)c1cc(Cl)ccc1O + CCCS(=O)(=O)Nc1ccc(F)c(C(=O)c2c[nH]c3ncc(Cl)cc23)c1F [PLX4720] (first compound 0.016 µM, partner dose 0.08 µM) | 61.8 | 102 | 46.8 | 149 | 88.6 | 113 | 104 | 155 | 104 | 145 | 64.3 | 122 | 116 | 121 | 45.2 | 124 | 103 | 136 | 59.6
5 | Cc1ccc(Nc2nccc(N(C)c3ccc4c(C)n(C)nc4c3)n2)cc1S(N)(=O)=O [Pazopanib] + C[C@]1(O)C[C@@H](c2nc(-c3ccc4ccc(-c5ccccc5)nc4c3)c3c(N)nccn32)C1 [OSI906] (first compound 0.4 µM, partner dose 0.4 µM) | 170 | 105 | 181 | 191 | 123 | 90.6 | 119 | 133 | 96.4 | 69.9 | 71.4 | 108 | 155 | 86.9 | 68.4 | 207 | 26.3 | 95.5 | 83.9
6 | Cc1ccc(Nc2nccc(N(C)c3ccc4c(C)n(C)nc4c3)n2)cc1S(N)(=O)=O [Pazopanib] + CC(=O)c1c(C)c2cnc(Nc3ccc(N4CCNCC4)cn3)nc2n(C2CCCC2)c1=O [palbociclib] (first compound 0.4 µM, partner dose 0.04 µM) | 226 | 56.9 | 78.6 | 186 | 91.8 | 48.2 | 156 | 92.1 | 114 | 69.2 | 33.2 | 82.1 | 185 | 96.2 | 228 | 44.6 | 55.8 | 89.5 | 105
7 | Cc1ccc(Nc2nccc(N(C)c3ccc4c(C)n(C)nc4c3)n2)cc1S(N)(=O)=O [Pazopanib] + CNC(=O)c1cc(Oc2ccc(NC(=O)Nc3ccc(Cl)c(C(F)(F)F)c3)cc2)ccn1 [sorafenib] (first compound 0.4 µM, partner dose 0.4 µM) | 88.7 | 145 | 123 | 119 | 233 | 169 | 103 | 685 | 244 | 127 | 36.6 | 144 | 76.7 | 35.2 | 57.3 | 94.5 | 120 | 69.8 | 82.5
8 | Cc1cc(Nc2cc(N3CCN(C)CC3)nc(Sc3ccc(NC(=O)C4CC4)cc3)n2)n[nH]1 [Tozasertib] + O=C(O)[C@@H]1[O][Sb](=[O])([O][Sb]2(=[O])[O][C@H]([C@H](O)CO)[C@H](O)[C@H](C(=O)O)[O]2)[O][C@H]([C@H](O)CO)[C@@H]1O [stibogluconate] (first compound 0.006 µM, partner dose 2 µM) | 113 | 46.9 | 182 | 52 | 29.7 | 51.8 | 90.8 | 4060 | 82.7 | 88.5 | 88.8 | 102 | 121 | 107 | 87.3 | 58.7 | 224 | 42.5 | 81.1
9 | O=c1[nH]nc(Sc2ncc([N+](=O)[O-])s2)n1-c1ccc2c(c1)OCCO2 + Cn1nnc2c(C(N)=O)ncn2c1=O [temozolomide] (first compound 0.2 µM, partner dose 2 µM) | 2920 | 104 | 98.7 | 240 | 113 | 128 | 158 | 275 | 155 | 76.7 | 146 | 49.2 | 56.1 | 67 | 182 | 47.3 | 107 | 212 | 64.1
10 | CCCCCCCCCCCCCCCCCCOP(=O)([O-])OC1CC[N+](C)(C)CC1 [Perifosine] + C[C@]1(O)C[C@@H](c2nc(-c3ccc4ccc(-c5ccccc5)nc4c3)c3c(N)nccn32)C1 [OSI906] (first compound 0.4 µM, partner dose 0.4 µM) | 146 | 151 | 110 | 611 | 87.8 | 132 | 124 | 134 | 109 | 34.3 | 58.5 | 146 | 92.8 | 163 | 133 | 338 | 198 | 174 | 65.2
11 | Cc1cc(Nc2cc(N3CCN(C)CC3)nc(Sc3ccc(NC(=O)C4CC4)cc3)n2)n[nH]1 [Tozasertib] + Cn1c(Nc2ccc(C(F)(F)F)cc2)nc2cc(Oc3ccnc(-c4ncc(C(F)(F)F)[nH]4)c3)ccc21 [CHIR265] (first compound 0.006 µM, partner dose 0.08 µM) | 337 | 67.4 | 297 | 555 | 26 | 238 | 116 | 254 | 114 | 290 | 391 | 72.4 | 125 | 521 | 68.5 | 170 | 405 | 52.1 | 189
12 | Cc1cn(-c2cc(NC(=O)c3ccc(C)c(Nc4nccc(-c5cccnc5)n4)c3)cc(C(F)(F)F)c2)cn1 [nilotinib] + OCc1c[nH]c2ccccc12 [Indole-3-carbinol] (first compound 0.2 µM, partner dose 0.8 µM) | 159 | 69.1 | 189 | 76.2 | 77.4 | 97.1 | 96.8 | 97.6 | 96.1 | 37.4 | 57.3 | 123 | 70 | 116 | 144 | 145 | 110 | 46.4 | 150
13 | CCCCCCCCCCCCCCCCCCOP(=O)([O-])OC1CC[N+](C)(C)CC1 [Perifosine] + CS(=O)(=O)CCNCc1ccc(-c2ccc3ncnc(Nc4ccc(OCc5cccc(F)c5)c(Cl)c4)c3c2)o1 [lapatinib] (first compound 0.4 µM, partner dose 0.8 µM) | 63.3 | 79.8 | 116 | 108 | 79.9 | 73 | 88.8 | 20.6 | 72.2 | 47.9 | 114 | 73.6 | 115 | 45 | 42.1 | 49.6 | 191 | 91.3 | 55.1
14 | Cc1ccc(Nc2nccc(N(C)c3ccc4c(C)n(C)nc4c3)n2)cc1S(N)(=O)=O [Pazopanib] + COc1ccc(C2=N[C@@H](c3ccc(Cl)cc3)[C@@H](c3ccc(Cl)cc3)N2C(=O)N2CCNC(=O)C2)c(OC(C)C)c1 [Nutlin-3] (first compound 0.4 µM, partner dose 0.1 µM) | 53.5 | 214 | 170 | 76.6 | 83 | 209 | 108 | 126 | 110 | 68.7 | 138 | 93.8 | 148 | 118 | 401 | 39.4 | 180 | 83.7 | 107
15 | CC[C@]1(O)C[C@H]2CN(CCc3c([nH]c4ccccc34)[C@@](C(=O)OC)(c3cc4c(cc3OC)N(C=O)[C@H]3[C@@](O)(C(=O)OC)[C@H](OC(C)=O)[C@]5(CC)C=CCN6CC[C@]43[C@@H]65)C2)C1 [vincristine] + Cn1sc(=O)n(Cc2ccccc2)c1=O [TDZD-8] (first compound 0.0001 µM, partner dose 0.4 µM) | 71 | 89.3 | 178 | 142 | 75.5 | 121 | 189 | 73.9 | 96.8 | 54.2 | 63.1 | 202 | 117 | 134 | 84.5 | 130 | 102 | 203 | 81.6
16 | O=c1[nH]nc(Sc2ncc([N+](=O)[O-])s2)n1-c1ccc2c(c1)OCCO2 + COCC[n+]1c2c(n(Cc3cnccn3)c1C)C(=O)c1ccccc1C2=O [YM155] (first compound 0.2 µM, partner dose 0.0004 µM) | 140 | 32.9 | 67.4 | 132 | 87.2 | 208 | 87.4 | 131 | 111 | 57.3 | 105 | 102 | 164 | 38.8 | 90.9 | 33.7 | 125 | 65.4 | 86.2
